# Paper PMC4561369
# No constants are given. Whether binding was seen depends on the method and setting. In cells and extracts the contact can be indirect. These calls come from enrichment with a bait or labelling near it, and not all partners need be listed.
# Target: mutant p53 (mutp53) R172H protein of Trp53^R172H/R172H knock-in mice (mouse (endogenous in tissues of Trp53^R172H/R172H mice)) (UniProt P02340)
# Assay: affinity purification with mass spectrometry; lysates of thymic lymphomas of Trp53^R172H/R172H mice (n = 3); IP with anti-p53 (FL393) beads, eluted with 0.1 M glycine, bands of a 4–15% SDS gel analysed by LC-MS/MS; normal thymus as control
row,Binder,binding
1,"Cct8 (protein, UniProt P42932 1-548) MALHVPKAPGFAQMLKDGAKHFSGLEEAVYRNIQACKELAQTTRTAYGPNGMNKMVINRLEKLFVTNDAATILRELEVQHPAAKMIVMASHMQEQEVGDGTNFVLVFAGALLELAEELLRIGLSVSEVISGYEIACKKAHEILPELVCCSAKNLRDVDEVSSLLRTSIMSKQYGSETFLAKLIAQACVSIFPDSGNFNVDNIRVCKILGSGIYSSSVLHGMVFKKETEGDVTSVKDAKIAVYSCPFDGMITETKGTVLIKTAEELMNFSKGEENLMDAQVKAIAGTGANVIVTGGKVADIALHYANKYNIMLVRLNSKWDLRRLCKTVGATALPKLTPPVQEEMGHCDSVYLSEVGDTQVVVFKHEKEDGAISTIVLRGSTDNLMDDIERAVDDGVNTFKVLTRDKRLVPGGGATEIELAKQITSYGETCPGLEQYAIKKFAEAFEAIPRALAENSGVKANEVISKLYSVHQEGNKNVGLDIEAEVPAVKDMLEASILDTYLGKYWAIKLATNAAVTVLRVDQIIMAKPAGGPKPPSGKKDWDDDQND",binds
2,"Cand1 (protein, UniProt Q6ZQ38 1-1230) MASASYHISNLLEKMTSSDKDFRFMATNDLMTELQKDSIKLDDDSERKVVKMILRLLEDKNGEVQNLAVKCLGPLVSKVKEYQVETIVDTLCTNMLSDKEQLRDISSIGLKTVIGELPPASSGSALAANVCKKITGRLTSAIAKQEDVSVQLEALDIMADMLSRQGGLLVNFHPSILTCLLPQLTSPRLAVRKRTIIALGHLVMSCGNIVFVDLIEHLLSELSKNDSMSTTRTYIQCIAAISRQAGHRIGEYLEKIIPLVVKFCNVDDDELREYCIQAFESFVRRCPKEVYPHVSTIINICLKYLTYDPNYNYDDEDEDENAMDADGGDDDDQGSDDEYSDDDDMSWKVRRAAAKCLDAVVSTRHEMLPEFYKTVSPALIARFKEREENVKADVFHAYLSLLKQTRPVQSWLCDPDAMEQGDTPLTMLQSQVPNIVKALHKQMKEKSVKTRQCCFNMLTELVNVLPGALTQHIPVLVPGIIFSLNDKSSSSNLKIDALSCLYVILCNHSPQVFHPHVQALVPPVVACVGDPFYKITSEALLVTQQLVKVIRPLDQPSSFDATPYIKDLFTCTIKRLKAADIDQEVKERAISCMGQIICNLGDNLGPDLSNTLQIFLERLKNEITRLTTVKALTLIAGSPLKIDLRPVLGEGVPILASFLRKNQRALKLGTLSALDILIKNYSDSLTAAMIDAVLDELPPLISESDMHVSQMAISFLTTLAKVYPSSLSKISGSILNELIGLVRSPLLQGGALSAMLDFFQALVVTGTNNLGYMDLLRMLTGPVYSQSTALTHKQSYYSIAKCVAALTRACPKEGPAVVGQFIQDVKNSRSTDSIRLLALLSLGEVGHHIDLSGQLELKSVILEAFSSPSEEVKSAASYALGSISVGNLPEYLPFVLQEITSQPKRQYLLLHSLKEIISSASVAGLKPYVENIWALLLKHCECAEEGTRNVVAECLGKLTLIDPETLLPRLKGYLISGSSYARSSVVTAVKFTISDHPQPIDPLLKNCIGDFLKTLEDPDLNVRRVALVTFNSAAHNKPSLIRDLLDSVLPHLYNETKVRKELIREVEMGPFKHTVDDGLDIRKAAFECMYTLLDSCLDRLDIFEFLNHVEDGLKDHYDIKMLTFLMLVRLSTLCPSAVLQRLDRLVEPLRATCTTKVKANSVKQEFEKQDELKRSAMRAVAALLTIPEAEKSPLMSEFQSQISSNPELAAIFESIQKDSSSTNLESMDTS",binds
